Changes are numbered by the printed parent chain. Numbers in names are those of the source. These are yes or no findings as the source states them, for the method shown. In cells and extracts the contact can be indirect. Some binding calls cover weakened binding; strength is not graded here.
B1: human wild type transglutaminase 2 (TG2) (enzyme, UniProt P21980 1-687)
chain: MAEELVLERCDLELETNGRDHHTADLCREKLVVRRGQPFWLTLHFEGRNYEASVDSLTFSVVTGPAPSQEAGTKARFPLRDAVEEGDWTATVVDQQDCTLSLQLTTPANAPIGLYRLSLEASTGYQGSSFVLGHFILLFNAWCPADAVYLDSEEERQEYVLTQQGFIYQGSAKFIKNIPWNFGQFEDGILDICLILLDVNPKFLKNAGRDCSRRSSPVYVGRVVSGMVNCNDDQGVLLGRWDNNYGDGVSPMSWIGSVDILRRWKNHGCQRVKYGQCWVFAAVACTVLRCLGIPTRVVTNYNSAHDQNSNLLIEYFRNEFGEIQGDKSEMIWNFHCWVESWMTRPDLQPGYEGWQALDPTPQEKSEGTYCCGPVPVRAIKEGDLSTKYDAPFVFAEVNADVVDWIQQDDGSVHKSINRSLIVGLKISTKSVGRDEREDITHTYKYPEGSSEEREAFTRANHLNKLAEKEETGMAMRIRVGQSMNMGSDFDVFAHITNNTAEEYVCRLLLCARTVSYNGILGPECGTKYLLNLNLEPFSEKSVPLCILYEKYRDCLTESNLIKVRALLVEPVINSYLLAERDLYLENPEIKIRILGEPKQKRKLVAEVSLQNPLPVALEGCTFTVEGAGLTEEQKTVEIPDPVEAGEEVKVRMDLLPLHMGLHKLVVNFESDKLKAVKGFRNVIIGPA
B2: TG2-C277S (transamidating inactive mutant of human TG2) (enzyme, UniProt P21980 1-687)
chain: B1 chain with C277S
B3: TG2-R580A (GTP binding deficient mutant of human TG2) (enzyme, UniProt P21980 1-687)
chain: B1 chain with R580A

The chains behind the UniProt entries cited, without tags or fusion partners.
UniProt P53762: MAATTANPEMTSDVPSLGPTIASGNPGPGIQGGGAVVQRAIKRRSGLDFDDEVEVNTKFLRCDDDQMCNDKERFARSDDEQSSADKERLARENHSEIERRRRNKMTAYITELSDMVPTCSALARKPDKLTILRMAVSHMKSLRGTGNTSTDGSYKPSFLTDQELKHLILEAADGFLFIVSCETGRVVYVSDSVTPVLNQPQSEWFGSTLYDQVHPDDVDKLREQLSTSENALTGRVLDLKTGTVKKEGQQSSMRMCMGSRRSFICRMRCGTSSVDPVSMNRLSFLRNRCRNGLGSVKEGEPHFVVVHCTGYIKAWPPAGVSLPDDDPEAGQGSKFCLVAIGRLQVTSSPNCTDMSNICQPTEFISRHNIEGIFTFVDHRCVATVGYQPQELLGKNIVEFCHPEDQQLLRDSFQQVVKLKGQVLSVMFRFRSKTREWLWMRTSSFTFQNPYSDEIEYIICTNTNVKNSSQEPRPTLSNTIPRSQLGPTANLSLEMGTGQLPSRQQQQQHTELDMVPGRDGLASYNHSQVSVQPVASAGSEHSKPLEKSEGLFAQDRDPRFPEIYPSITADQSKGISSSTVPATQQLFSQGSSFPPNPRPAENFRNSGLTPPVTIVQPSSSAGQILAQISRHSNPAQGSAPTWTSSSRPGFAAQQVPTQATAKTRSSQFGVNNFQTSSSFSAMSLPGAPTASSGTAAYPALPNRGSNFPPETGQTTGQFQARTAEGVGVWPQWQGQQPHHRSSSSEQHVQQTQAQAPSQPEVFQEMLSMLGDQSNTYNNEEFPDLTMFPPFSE

Molecular target: HIF-1β, the constitutively expressed subunit of HIF-1 (Hypoxia inducible factor-1) (mouse (endogenous in mouse striatal cells)) (UniProt P53762)
Assay: co-IP; HIF-1β immunoprecipitated from 100 µg lysate of stable striatal cell lines with rabbit anti-mouse HIF-1β antibody on anti-rabbit IgG magnetic beads, 4 h at 4°C; washed with 350 mM NaCl, 0.2% Triton-X in PBS; blotted for TG2; cells kept under normoxic or hypoxic conditions

binding, binds:
B1
B2
B3

Source: publication PMC3031627
